Assay results from patent US9605057.
No constants are given. Whether binding was seen depends on the method and setting. In cells and extracts the contact can be indirect. Some results given as binding are weak or reduced against the parent protein; the word gives no strength.

B1: 10B6-A11 rat anti-mouse endotrophin monoclonal antibody (antibody, V domains shown)
VH: QVQLQQSGPELAKPGSSVKISCKASGYTFTSYEMHWIKQRPGQGLEWIGYIYPESGSTGYNEKFKGKATLTVDKSSPTAYMQLSSLTPDNSAVYFCTRGLRVLGYVMDVWGHGTSVTVSS
VL: DVQLTQSPSFLSASVGDRVTINCKASQNINKYLNWYQQKLGEAPKRLIYNTNNLQTGIPSRFSGSASGTDYTLTISSLHPEDFATYFCLQHSSLYTFGAGTKLELK
B2: 10B6-B5 rat anti-mouse endotrophin monoclonal antibody (antibody, V domains shown)
VH: QVQLQQSGPELAKPGSSVKISCKASGYTFTSYEMHWIKQRPGQGLEWIGYIYPESGSTGYNEKFKGKATLTVDKSSPTAYMQLSSLTPDNSAVYFCTRGLRVLGYVMDVWGHGTSVTVSS
VL: DVQLTQSPSFLSASVGDRVTINCKASQNINKYLNWYQQKLGEAPKRLIYNTNNLQTGIPSRFSGSASGTDYTLTISSLHPEDFATYFCLQHSSLYTFGAGTKLELK
B3: 10B6-C3 rat anti-mouse endotrophin monoclonal antibody (antibody, V domains shown)
VH: QVQLQQSGPELAKPGSSVKISCKASGYTFTSYEMHWIKQRPGQGLEWIGYIYPESGSTGYNEKFKGKATLTVDKSSPTAYMQLSSLTPDNSAVYFCTRGLRVLGYVMDVWGHGTSVTVSS
VL: DVQLTQSPSFLSASVGDRVTINCKASQNINKYLNWYQQKLGEAPKRLIYNTNNLQTGIPSRFSGSASGTDYTLTISSLHPEDFATYFCLQHSSLYTFGAGTKLELK

Target: T1, mouse endotrophin (C5 domain of the alpha3 chain of mouse collagen VI) (mouse)
T1 sequence: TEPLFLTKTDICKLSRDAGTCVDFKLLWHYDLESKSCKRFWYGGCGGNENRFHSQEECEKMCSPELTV
Assay: pull-down of IRD-800 labeled native endotrophin with antibody and Protein G Sepharose, Tricine gel, infrared scan

Binder | binding
B1 | binds
B2 | binds
B3 | binds
